Laboratory results published in patent US20050215770A1.
Changes are numbered by the printed parent chain. These are yes or no findings as the source states them, for the method shown. Some binding calls cover weakened binding; strength is not graded here. Tags and fused reporters may be left off the sequences shown.

T1: Recombinant soluble human Flag-tagged NogoR (amino acids 1 to 309 of SEQ ID NO:2) (human) (UniProt Q9BZR6)
T1 sequence (chain, biotinylated with Sulfo-NHS-LC-Biotin): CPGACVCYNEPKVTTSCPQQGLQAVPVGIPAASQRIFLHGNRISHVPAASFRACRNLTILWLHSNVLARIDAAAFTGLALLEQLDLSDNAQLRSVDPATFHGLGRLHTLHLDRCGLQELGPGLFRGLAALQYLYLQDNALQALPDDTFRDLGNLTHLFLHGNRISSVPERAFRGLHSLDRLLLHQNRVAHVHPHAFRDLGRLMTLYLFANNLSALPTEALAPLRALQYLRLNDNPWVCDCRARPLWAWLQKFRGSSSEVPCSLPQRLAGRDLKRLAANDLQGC

B1: NGE2131 (scFv)
scFv: QVTLKESGPGLVKPSETLSLTCTVSGGSISSSSYYWGWIRQPPGKGLEWIGSIYYSGNTYDNPSLKSRLTMSVDTSRNQFSLKLSSVTAADTAVYYCARQRYNSAWFPYYFDLWGRGTLVTVSSGGGGSGGGGSGGGGSDIQMTQSPSTLSASIGDRVTITCRASEGIYHWLAWYQQKPGKAPKLLIYKASSLASGAPSRFSGSGSGTDFTLTISSLQPDDFATYYCQRYSNYPLTFGGGTKLEIKR
B2: NGE2164 (scFv)
scFv: EVQLVQSGGGLLQPGRSLRLSCAASGFTFSSYSMNWVRQAPGKGPEWVSAISGSGGSTYYADSVKGRFTISRDNSKNTLYLQMNSLRAEDTAVYYCAKASPATLEWLFPYYYYMDAWGRGTLVTVSSGGGGSGGGGSGGGGSDIVMTQSPSTLSASVGDRVTITCRASQGISSWLAWYQQRPGRAPKVLIYKASTLESGVPSRFSGSGSGTDFTLTISSLQPEDFATYYCQQSYSTPWTFGQGTKLEIKR
B3: NGE2258 (scFv)
scFv: QMQLVQSGGGLVKSGGSLRLSCAASGFTFSDYYMSWVRQAPGKGLEWISYISSSGSIIYYADSVRGRFTISRDNADNSLYLHMNSLRADDTAVYYCARDPQGYTATRDSWFDPWGQGTMVTVSSGGGGSGGGGSGGGGSQSVLTQPASVSGSPGRSITISCTGTSSDVGGYNYVSWYQQHPGKAPKLMIYEGSKRPSGVSNRFSGSKSGNTASLTISGLQAEDEADYYCSSYTTRSTRVFGGGTKLTVLG
B4: NGE2433 (scFv)
scFv: QVQLVQSGGVVVQPGGSLRLSCAASGFTFDDYAMHWVRQAPGKGLEWVSLISWDGGSTYYADSVKGRFTISRDNSKNSLYLQMNSLRAEDTALYYCAKDLNYDFWSGLGMDVWGQGTLVTVSSGGGGSGGGGSGGGGSQSVLTQPASVSGSPGQSITISCTGTSSDVGGYNYVSWYQQHPGKAPKLMIYEGSKRPSGVSNRFSGSKSGNTASLTISGLQAEDEADYYCSSYTTRSTRVFGGGTKLTVLG
B5: NGE2435 (scFv)
scFv: QVQLQESGPGLVKPSETLSLTCVVSGGSISSSNWWSWVRQPPRKGLEWIGEIYHSGSPNYNPSLKSRVTISVDKSKNQFSLKLSSVTPADTAVYYCARQWEGIPSWGKGTLVTVSSGGGGSGGGGSGGGGSSELTQDPAVSVALGQTVRITCQGDSLRSYYASWYQQKPGQAPVLVIYGKNNRPSGIPDRFSGSSSGNTASLTITGAQAEDEADYYCNSWDSSGNHVVFGGGTKLTVLG
B6: NGE2439 (scFv)
scFv: EVQLVESGAEVKEPGASVKVSCKASGYTFTGYYMHWVRQAPGQGLEWMGWINPNSGDTHYAQKFQGRVTMTRDTSVSTAYMELSSLRSEDTAVYYCARGRSRYDFWSGYYGGDYDYYYIDVWGQGTTVTVSSGGGGSGGGGSGGGGSSELTQDPAVSVALGQTVRITCQGDSLRSYYASWYQQKPGQAPVLVIYGKDNRPSGIPDRFSGSSSGNTASLTITGAQAEDEADYYCNSRDSSGNHVVFGGGTKLTVLG
B7: NGE2445 (scFv)
scFv: B4 scFv with Q1E, G217E
B8: NGE2446 (scFv)
scFv: QVQLQQSGPGLVRPSETLSLTCAVYGESLTGYYWSWIRQAPGQGLEWIGEINHSETTNYNPSLKSRLTISVDTSKNQFSLKLTSVTAADTAVYYCARGGTLLGYWGRGTLVTVSSGGGGSGGGGSGGGGSSELTQDPAVSVALGQTVRITCQGDSLRSYYASWYQQKPGQAPVLVIYGKNNRPSGIPDRFSGSSSGNTASLTITGAQAEDEADYYCNSRDSSGNHVVFGGGTKLTVLG
B9: NGE2447 (scFv)
scFv: B2 scFv with L12V, R16G, A116V, R119Q, L122T, R181K
B10: NGE2458 (scFv)
scFv: QVQLQQSGAEVKKPGSSVTVSCKASGGTFTSYAINWVRQAPGQGLEWMGRTIPDLGIADYAQKFQGRVSITAHKFTNTAYMELSSLKSDDTAVYYCARAPVLMAPGGGMDVWGKGTLVTVSSGGGGSGGGGSGGGGSSELTQDPAVSVALGQTVRITCQGDSLKSYYASWYQQKPGQAPVLVIYGKNNRPSGIPDRFSGSSSGNTASLTITGAQAEDEADYYCNSRDSSGNHVVFGGGTKLTVLG
B11: NGE2506 (scFv)
scFv: EVQLVESGGGVVQPGRSLRLSCAASGFTFRSYGMHWVRQAPGKGLEWVAGISYDGSNKYYADSVKGRFTISRDNSKNTLYLQMNSLRAEDTAMYYCARDQSVYFGDLAWYFDLWGRGTLVTVSSGGGGSGGGGSGGGGSQSVLTQPPSVSAAPGQKVTISCSGSTSNIGNNYVSWYQQHPGKAPKLMIYDVSKRPSGVPDRFSGSKSGNSASLDISGLQSEDEADYYCAAWDDSLSEFLFGTGTKLTVLG
B12: NGE2527 (scFv)
scFv: B4 scFv with V11L, K98T, L108S, G109S, Q115K, L118M, T163A
B13: NGE2638 (scFv)
scFv: QVQLVQSGGGLVKPGGSLRLSCAASGFTFSSYEMNWVRQAPGKGLEWVSYISSSGSTIYYADSVKGRFTISRDNAKNSLYLQMNSLRAEDTAVYYCARASGYDGVWGQGTLVTVSSGGGGSGGGGSGGGGSQSVLTQPPSASGTPGQRVTISCSGSSSNVGSNTVNWYQRLPGAAPQLLIYNNDQRPSGIPDRFSGSKSGTSGSLVISGLQSEDEADYYCASWDDSLNGRVFGGGTKLTVLG
B14: NGE2648 (scFv)
scFv: QVQLQQSGRGLVQPGRSLRLSCTASGFTFGDYAMSWVRQAPGKGLEWVGLIRSKAYGGTTEYAASVKGRFTISRDDSKSIAYLQMNSLRTEDTAVYYCATDFWSGYSYWGKGTLVTVSSGGGGSGGGGSGGGGSDIQMTQSPSTLSASIGDRVTITCRASEGIYHWLAWYQQKPGKAPKLLIYKASSLASGAPSRFSGSGSGTDFTLTISSLQPDDFATYYCQQYSNYPLTFGGGTKLEIKR
B15: NGE2741 (scFv)
scFv: GVQLVQSGAEVKKPGASVKVSCKTSGYSFTDYFIHWVRQAPGQGLEWMGWINPQSGGSHSAQKFHGRVTVTRDTSIKTAYMEVTSLTSDDTAVYFCAREGPPWTNYYFDYWGRGTLVTVSSGGGGSGGGGSGGGGSDIVMTQSPSTLSASVGDRVTITCRASQGISSWLAWYQQKPGRAPKVLIYKASTLESGVPSRFSGSGSGTDFTLTISSLQPEDFATYYCQQSYSAPWTFGQGTKLEIKR
B16: NGE2775 (scFv)
scFv: QVQLVQSGGVVVQPGGSLRLSCAASGFTFDDYAMHWVRQAPGKGLEWVSLISWDGGSTYYADSVKGRFTISRDNSKNSLYLQMNSLRAEDTALYYCAKDLNYDFWSGSGIDVWGKGTLVTVSSGGGGSGGGGSGGGGSQSVLTQPASVSGSPGQSITISCTGTSSDVGGYNYVSWYQQHPGKAPKLMIYEGSKRPSGVSNRFSGSKSGNSASLTISGLKTEDEADYYCQSYDSSNHWVFGGGTKLTVLG
B17: NGE2868 (scFv)
scFv: EVQLVQSGGVVVQPGGSLRLSCAASGFIFDDYAMHWVRRAPGKGLEWVSLISWDGGSTYYADSVKGRFTISRDNSKNSLYLQMNSLRAEDTALYYCAKDVEGYDFWSTYYGMDAWGQGTTVTVSSGGGGSGGGGSGGGGSQSVLTQPASVSGSPGQSITISCTGTSSDVGGYNYVSWYQQRPGKAPKLMIYEGSKRPSGVSNRFSGSKSGNTASLTISGLQAEDEADYYCSSYTTRSTRVFGGGAKLTVLG
B18: NGE2889 (scFv)
scFv: EVQLVESGAEVKKPGASVKVSCKASGYTFTSYYMHWVRQAPGQGLEWMGWMNPNSGNTGYAQKFQGRVTMTRNTSISTAYMELSSLRSEDTAVYYCARGGARYYYMDVWGKGTLVTVSSGGGGSGGGGSGGGGSDIVMTQSPSTLSASVGDRVTITCRASQGISSWLAWYQQKPGRAPKVLIYKASTLESGVPSRFSGSGSGTDFTLTISSLQPEDFATYYCQQSHSTPWTFGQGTKLEIKR

Legend:
[1] = target: T1, Recombinant soluble human Flag-tagged NogoR (amino acids 1 to 309 of SEQ ID NO:2) (human); experiment: ECL phage screen (Example 1)
[2] = target: T1, Recombinant soluble human Flag-tagged NogoR (amino acids 1 to 309 of SEQ ID NO:2) (human); experiment: ECL phage screen on biotin-rHuNOGOSR-Flag (positive: 5-fold above background)

Row | Binder | binding [1] | binding [2]
1 | B1 | binds | binds
2 | B2 | binds | binds
3 | B3 | binds | binds
4 | B4 | binds | binds
5 | B5 | binds | binds
6 | B6 | binds | binds
7 | B7 | binds | binds
8 | B8 | binds | binds
9 | B9 | binds | binds
10 | B10 | binds | binds
11 | B11 | binds | binds
12 | B12 | binds | binds
13 | B13 | binds | binds
14 | B14 | binds | binds
15 | B15 | binds | binds
16 | B16 | binds | binds
17 | B17 | binds | binds
18 | B18 | binds | binds
